From publication PMC7346168

T1: 2-cysteine peroxiredoxin A, wild type (2-CysPRXA WT) (Arabidopsis) (UniProt Q96291)
T1 sequence: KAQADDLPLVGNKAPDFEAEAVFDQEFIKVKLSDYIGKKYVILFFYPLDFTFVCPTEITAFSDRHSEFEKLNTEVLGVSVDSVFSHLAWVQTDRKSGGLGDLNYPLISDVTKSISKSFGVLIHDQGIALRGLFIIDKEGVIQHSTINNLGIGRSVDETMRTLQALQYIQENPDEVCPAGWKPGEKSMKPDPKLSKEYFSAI

B1: 30S ribosomal protein S17 (protein, UniProt P16180 50-149)
chain: MKTMQGRVVCATSDKTVAVEVVRLAPHPKYKRRVRMKKKYQAHDPDNQFKVGDVVRLEKSRPISKTKSFVALPVIARAARKAEAGGDELLGLPLESQQPA
B2: Pyruvate dehydrogenase E1 subunit beta-3 (protein, UniProt O64688 71-406)
chain: ADTAASSTSSKPGHELLLFEALQEGLEEEMDRDPHVCVMGEDVGHYGGSYKVTKGLADKFGDLRVLDTPICENAFTGMGIGAAMTGLRPVIEGMNMGFLLLAFNQISNNCGMLHYTSGGQFTIPVVIRGPGGVGRQLGAEHSQRLESYFQSIPGIQMVACSTPYNAKGLMKAAIRSENPVILFEHVLLYNLKESIPDEEYICNLEEAEMVRPGEHITILTYSRMRYHVMQAAKTLVNKGYDPEVIDIRSLKPFDLYTIGNSVKKTHRVLIVEECMRTGGIGASLTAAINENFHDYLDAPVMCLSSQDVPTPYAGTLEEWTVVQPAQIVTAVEQLCQ
B3: Sulfiredoxin (protein, UniProt Q8GY89 23-125)
chain: NGSPPVIGGSSGGVGPMIVELPLEKIRRPLMRTRSNDQNKVKELMDSIRQIGLQVPIDVIEVDGTYYGFSGCHRYEAHQKLGLPTIRCKIRKGTKETLRHHLR
B4: Malate dehydrogenase (AT3G47520) (protein, UniProt Q9SN86 81-403)
chain: ASYKVAVLGAAGGIGQPLSLLIKMSPLVSTLHLYDIANVKGVAADLSHCNTPSQVRDFTGPSELADCLKDVNVVVIPAGVPRKPGMTRDDLFNINANIVKTLVEAVAENCPNAFIHIISNPVNSTVPIAAEVLKKKGVYDPKKLFGVTTLDVVRANTFVSQKKNLKLIDVDVPVIGGHAGITILPLLSKTKPSVNFTDEEIQELTVRIQNAGTEVVDAKAGAGSATLSMAYAAARFVESSLRALDGDGDVYECSFVESTLTDLPFFASRVKIGKNGLEAVIESDLQGLTEYEQKALEALKVELKASIDKGVAFANKPAAAAAN
B5: CDPME kinase (protein, UniProt O81014 73-383)
chain: LKLFSPCKINVFLRITGKREDGFHDLASLFHVISLGDTIKFSLSPSKSKDRLSTNVQGVPVDGRNLIIKALNLYRKKTGSNRFFWIHLDKKVPTGAGLGGGSSNAATALWAANELNGGLVTENELQDWSSEIGSDIPFFFSHGAAYCTGRGEIVQDLPPPFPLDLPMVLIKPREACSTAEVYKRLRLDQTSNINPLTLLENVTSNGVSQSICVNDLEPPAFSVLPSLKRLKQRIIASGRGEYDAVFMSGSGSTIIGIGSPDPPQFIYDDEEYKNVFLSEANFMTREANEWYKEPASANATTSSAESRMDFQ
B6: Single-stranded DNA-binding protein WHY1 (protein, UniProt Q9M9S3 48-263)
chain: LFSVKSRQTDYFEKQRFGDSSSSPSPAEGLPARFYVGHSIYKGKAALTVDPRAPEFVALDSGAFKLSKDGFLLLQFAPSAGVRQYDWSKKQVFSLSVTEIGTLVSLGPRESCEFFHDPFKGKSDEGKVRKVLKVEPLPDGSGHFFNLSVQNKLVNVDESIYIPITRAEFAVLISAFNFVLPYLIGWHAFANSIKPEETSRVNNASPNYGGDYEWNR
B7: 50S ribosomal protein L29 (protein, UniProt Q9FJP3 61-173)
chain: SKREAELKEIRSKTTEQLQEEVVDLKGELFMLRLQKSARNEFKSSDFRRMKKQVARMLTVKREREIKEGIKKRLSRKLDRQWKKSIVPRPPPSLKKLQEEEAAEEAAEAAKSA
B8: Probable protein phosphatase 2C 62 (protein, UniProt Q93V88 1-724)
chain: MADHLILSLQAPPFLIFPCSLHRSWRFPGGIRYSVPEFRLSSQLQLANSISPSKSSASSSSPPENSAPEKFDLVSSTQLKDGSHVFRFGDASEIEKYLEAEEKARCVEVETQNAKIAEEASEVSRKQKKLVSSIIETSTEKEETAAPSDLSNVIKIKDRKRVRSPTKKKKETVNVSRSEDKIDAKSASVSNLSSIVSVAEAIPISSTEEEAVVEKEITAKSYNVEPLSSEAMKKVSVNKIGDCETNGYQENRMEVQARPSLSTQQEITPVSTIEIDDNLDVTEKPIEAEENLVAEPTATDDLSPDELLSTSEATHRSVDEIAQKPVIDTSEENLLNTFEAEENPVVEPTATAAVSSDELISTSEATRHSVDEIAQKPIIDTSEKNPMETFVEPEAVHSSVDESTEKLVVVTSDVENDGENVASTTEDEITVRDTITDSGSISNNDDTKVEDLQLPVPETASLEPIKAASGREELVSKAFYLDSGFASLQSPFKALAGREDAYFISHHNWIGIADGVSQWSFEGINKGMYAQELMSNCEKIISNETAKISDPVQVLHRSVNETKSSGSSTALIAHLDNNELHIANIGDSGFMVIRDGTVLQNSSPMFHHFCFPLHITQGCDVLKLAEVYHVNLEEGDVVIAATDGLFDNLYEKEIVSIVCGSLKQSLEPQKIAELVAAKAQEVGRSKTERTPFADAAKEEGYNGHKGGKLDAVTVIISFVKIVST
B9: Transketolase-1 (protein, UniProt Q8RWV0 67-741)
chain: AAVETVEPTTDSSIVDKSVNSIRFLAIDAVEKAKSGHPGLPMGCAPMAHILYDEVMRYNPKNPYWFNRDRFVLSAGHGCMLLYALLHLAGYDSVQEEDLKQFRQWGSKTPGHPENFETPGIEVTTGPLGQGIANAVGLALAEKHLAARFNKPDAEVVDHYTYAILGDGCQMEGISNEACSLAGHWGLGKLIAFYDDNHISIDGDTEIAFTENVDQRFEALGWHVIWVKNGNTGYDEIRAAIKEAKTVTDKPTLIKVTTTIGYGSPNKANSYSVHGAALGEKEVEATRNNLGWPYEPFQVPDDVKSHWSRHTPEGATLESDWSAKFAAYEKKYPEEASELKSIITGELPAGWEKALPTYTPESPGDATRNLSQQCLNALAKVVPGFLGGSADLASSNMTLLKAFGDFQKATPEERNLRFGVREHGMGAICNGIALHSPGLIPYCATFFVFTDYMRGAMRISALSEAGVIYVMTHDSIGLGEDGPTHQPIEHIASFRAMPNTLMFRPADGNETAGAYKIAVTKRKTPSILALSRQKLPHLPGTSIEGVEKGGYTISDDSSGNKPDVILIGTGSELEIAAQAAEVLRKDGKTVRVVSFVCWELFDEQSDEYKESVLPSDVSARVSIEAASTFGWGKIVGGKGKSIGINSFGASAPAPLLYKEFGITVEAVVDAAKSFF
B10: PLAT domain-containing protein 1 (protein, UniProt O65660 15-181)
chain: ATVSAVAFAEDDPDCVYTFYLRTGSIWKAGTDSIISARIYDKDGDYIGIKNLQAWAGLMGPDYNYFERGNLDIFSGRAPCLPSPICALNLTSDGSGDHHGWYVNYVEITTAGVHAQCSTQDFEIEQWLATDTSPYELTAVRNNCPVKLRDSVSRVGSEIRKKLSWVV
B11: Phosphoglucan phosphatase LSF1 (protein, UniProt F4J117 62-591)
chain: AMSSSSTPFKMNLNEYMVTLEKPLGIRFALSADGKIFVHAIKKGSNAEKARIIMVGDTLKKASDSSGGTLVEIKDFGDTKKMLVEKTGSFSLVLERPFSPFPIQYLLHLSDLDLLYNRGRVSFVTWNKNLLSSNLRASSQGSGNSGYAAFSSKFFTPQGWKLLNRQSNSFQSGTKKNILSPPISPLVSVFSEDVPGDGEWGYGNFPLEEYIKALDRSKGELSYNHALGMRYSKITEQIYVGSCIQTEEDVENLSEAGITAILNFQGGTEAQNWGIDSQSINDACQKSEVLMINYPIKDADSFDLRKKLPLCVGLLLRLLKKNHRVFVTCTTGFDRSSACVIAYLHWMTDTSLHAAYSFVTGLHACKPDRPAIAWATWDLIAMVDDGKHDGTPTHSVTFVWNGHEGEEVLLVGDFTGNWKEPIKATHKGGPRFETEVRLTQGKYYYKYIINGDWRHSATSPTERDDRGNTNNIIVVGDVANVRPTIQQPRKDANIIKVIERVLTESERFRLAKAARCIAFSVCPIRLCPKS

molecular target: T1, 2-cysteine peroxiredoxin A, wild type (2-CysPRXA WT) (Arabidopsis); experiment: affinity purification with mass spectrometry; reducing: his6-tagged 2-CysPRXA variant (3 mg) on Ni-NTA-agarose pretreated with 10 mM DTT; leaf extract (50 mg protein) made with 10 mM DTT; 50 mM HEPES pH 8.0, 1 h, 4 °C; stepwise elution with 1 M NaCl, 10 mM DTT, 250 mM imidazole; hits not found on the column without 2-CysPRX; only the target purified

binding, binds:
B1, B2, B3, B4, B5, B6, B7, B8, B9, B10, B11

Results are given in words; binding and its absence hold for the method and conditions named. Binding seen in cells or lysates may run through a third protein. A yes stands for co-enrichment or nearness to the bait. Other partners may have been found. Sequences can lack the tags named with a protein.
